These are yes or no findings as the source states them, for the method shown. Binding seen in cells or lysates may run through a third protein. Some entries that bind do so weakly or less than the wild type.
Legend:
[1] = target: T1, TRAIL Death Receptor 5 (DR5) (human (endogenous in A549)), O14763; assay: co-IP; anti-DR5 immunoprecipitation from lysates of A549 cells pretreated with 50 uM apigenin for 18 h, then 25 or 100 ng/ml TRAIL or DMSO for 6 h; NP-40 buffer with 20 mM Tris-Cl, 150 mM NaCl, 1% NP-40, 10% glycerol; blots with anti-Hsp70, anti-caspase-8, anti-FADD and anti-DR5; settings: remark: other sources report otherwise
[2] = target: T1, TRAIL Death Receptor 5 (DR5) (human …); assay: co-IP; anti-DR5 immunoprecipitation from lysates of A549 cells transiently overexpressing myc-Hsp70, treated with vehicle (DMSO) or with 50 uM apigenin for 18 h then 100 ng/ml TRAIL for 6 h; blots as in Fig. 5a; settings: remark: other sources report otherwise

B1: caspase-8, Q14790 1-479 (enzyme)
chain: MDFSRNLYDIGEQLDSEDLASLKFLSLDYIPQRKQEPIKDALMLFQRLQEKRMLEESNLSFLKELLFRINRLDLLITYLNTRKEEMERELQTPGRAQISAYRVMLYQISEEVSRSELRSFKFLLQEEISKCKLDDDMNLLDIFIEMEKRVILGEGKLDILKRVCAQINKSLLKIINDYEEFSKERSSSLEGSPDEFSNGEELCGVMTISDSPREQDSESQTLDKVYQMKSKPRGYCLIINNHNFAKAREKVPKLHSIRDRNGTHLDAGALTTTFEELHFEIKPHDDCTVEQIYEILKIYQLMDHSNMDCFICCILSHGDKGIIYGTDGQEAPIYELTSQFTGLKCPSLAGKPKVFFIQACQGDNYQKGIPVETDSEEQPYLEMDLSSPQTRYIPDEADFLLGMATVNNCVSYRNPAEGTWYIQSLCQSLRERCPRGDDILTILTEVNYEVSNKDDKKNMGKQMPQPTFTLRKKLVFPSD
In the case of B1, the binding [1] is reported as “binds” and the binding [2] is reported as “binds”.
